Reference: article PMC9609998
For at least one entry, the source does not settle the construct or the ends of the probe. For part of these data: At least one result comes from cells or an extract, where the contact may be indirect.

Columns and labels:
[1] = biological target: EGFR (on pancreatic cancer cells) (UniProt P00533); assay: cell binding (method not given); conditions: EGFR-expressing pancreatic cells; 2'-fluoro pyrimidines; tissue: selection buffer, 2% BSA +/- 100 µg/mL yeast tRNA block, 1 h on ice; aptamers denatured at 95 °C 3 min then ice 5 min; buffer composition; protein on the cell surface; synthetic backbone; cited from earlier work
[2] = biological target: EGFR, recombinant human (human) (UniProt P00533); assay: filter binding; conditions: 2'-fluoro pyrimidines; tissue: selection buffer, 2% BSA +/- 100 µg/mL yeast tRNA block, 1 h on ice; aptamers denatured at 95 °C 3 min then ice 5 min; buffer composition; recombinant protein; label: 32P; synthetic backbone
[3] = biological target: EGFR (in human FFPE glioblastoma sections) (human) (UniProt P00533); assay: aptahistofluorescence; conditions: 2'-fluoro pyrimidines (2'F-RNA), tissue: selection buffer, 2% BSA +/- 100 µg/mL yeast tRNA block, 1 h on ice, aptamers denatured at 95 °C 3 min then ice 5 min, buffer composition, native protein, synthetic backbone
[4] = biological target: EGFR (on MDA-MB-231 breast cancer cells) (UniProt P00533); assay: confocal fluorescence imaging; conditions: 100 nM aptamer, lower signal than U87 EGFR WT, tracks EGFR level, not detected on MCF7 (no EGFR); 2'-fluoro pyrimidines (2'F-RNA); tissue: selection buffer, 2% BSA +/- 100 µg/mL yeast tRNA block, 1 h on ice; aptamers denatured at 95 °C 3 min then ice 5 min; buffer composition; protein on the cell surface; label: 5'-Cy5; synthetic backbone
[5] = biological target: EGFR (on U87MG EGFR WT glioblastoma cells) (UniProt P00533); assay: confocal fluorescence imaging; conditions: 100 nM aptamer, 30 min, not detected on LN319 (no EGFR); 2'-fluoro pyrimidines (2'F-RNA); tissue: selection buffer, 2% BSA +/- 100 µg/mL yeast tRNA block, 1 h on ice; aptamers denatured at 95 °C 3 min then ice 5 min; buffer composition; protein on the cell surface; label: 5'-Cy5; synthetic backbone

“GGACGGAUUUAAUCGCCGUAGAAAAGCAUGUCAAAGCCGGAACCGUCC [E07 (cited, label not stated)]”: binds [1].

Work on “GGACGGAUUUAAUCGCCGUAGAAAAGCAUGUCAAAGCCGGAACCGUCC [E07, 32P-labeled (cited)]” yielded a Kd [2] of 2.4 nM.

“GGACGGAUUUAAUCGCCGUAGAAAAGCAUGUCAAAGCCGGAACCGUCC [E07-Al488]”: binds ([3]; GBM sections, multiplexed with H02-Cy5, non-tumoral epileptic brain not labeled, label: 5'-Alexa 488 (Table S1 sequence cell prints Al568)).

“GGACGGAUUUAAUCGCCGUAGAAAAGCAUGUCAAAGCCGGAACCGUCC [E07-Cy5]”: binds ([3]; FFPE GBM, 500 nM aptamer, label: 5'-Cy5); binds [4]; binds [5].
